Measurements from patent US20250009725A1, “PHARMACEUTICAL COMPOSITION HAVING EXCELLENT DISSOLUTION PROPERTIES” (DAIICHI SANKYO COMPANY, LIMITED, priority 2021, published 2025).
Where a name gives a salt, the structure may show the parent alone. For at least one compound, name, drawing or mass did not settle the structure.

Test: Solubility and dissolution of valemetostat tosylate under vigorous or slow agitation
Assay type: physicochemical
Details: slow agitation, paddle method at 50 rotations per minute
Description: The object of the present invention is to provide a pharmaceutical composition in which valemetostat or a pharmaceutically acceptable salt thereof, particularly valemetostat tosylate, has excellent dissolution properties. […] Since the effect of vigorous agitation cannot be expected in vivo, a pharmaceutical composition having sufficient dissolution properties in vivo is needed.

Cc1cc(C)c(CNC(=O)c2cc(Cl)c3c(c2C)O[C@@](C)([C@H]2CC[C@H](N(C)C)CC2)O3)c(=O)[nH]1 [valemetostat tosylate, (2R)-7-chloro-2-[trans-4-(dimethylamino)cyclohexyl]-N-[(4,6-dimethyl-2-oxo-1,2-dihydropyridin-3-yl)methyl]-2,4-dimethyl-1,3-benzodioxol-5-carboxamide p-toluenesulfonate]
dissolution (in words): very low dissolution
